Patent US20230235004A1
Results are given in words; binding and its absence hold for the method and conditions named. Binding can be weak; no strength is given.

B1: MAdCAM antibody Table 1 clone 16 (scFv)
scFv: EVQLLESGGGLVQPGGSLRLSCAASGFTFEDYAMHWVRQAPGKGLEWVSYLNSDGGSTSYADSVKGRFTISRDNSKNTLYLQMNSLRAEDTAVYYCAKDYCTNGVCAFDYWGQGTLVTVSSGGGGSGGGGSGGGGSGGGGSDIQMTQSPSSLSASVGDRVTITCRASQSISTYLNWYQQKPGKAPKLLIYDASNLETGVPSRFSGSGSGTDFTLTISSLQPEDFATYYCQQSYTIPITFGQGTRLEIK
B2: MAdCAM antibody Table 1 clone 17 (scFv)
scFv: EVQLLESGGGLVQPGGSLRLSCAASGFTFSDSAMHWVRQAPGKGLEWVSAISGSGSTIYYADSVKGRFTISRDNSKNTLYLQMNSLRAEDTAVYYCVSDIAVAGHWYFDLWGRGTLVTVSSGGGGSGGGGSGGGGSGGGGSDIQMTQSPSSLSASVGDRVTITCRASQSISTFLNWYQQKPGKAPKLLIYAASRLEGGVPSRFSGSGSGTDFTLTISSLQPEDFATYYCQQANSFPLTFGPGTKVDIK
B3: MAdCAM antibody Table 1 clone 21 (scFv)
scFv: EVQLLESGGGLVQPGGSLRLSCAASGFTFSNAWMSWVRQAPGKGLEWVSTIVGNGGATYYADSVKGRFTISRDNSKNTLYLQMNSLRAEDTAVYYCARDNPLRWQGMDVWGQGTLVTVSSGGGGSGGGGSGGGGSGGGGSDIQMTQSPSSLSASVGDRVTITCRASQDISNYLNWYQQKPGKAPKLLIYAASSLQSGVPSRFSGSGSGTDFTLTISSLQPEDFATYYCQQSYSIPPTFGPGTKVDIK
B4: MAdCAM antibody Table 1 clone 25 (scFv)
scFv: QVQLVQSGAEVKKPGASVKVSCKASGYTLTTWYMYWVRQAPGQGLEWMGWINPNRGATNYAQKFQGRVTMTRDTSTSTVYMELSSLRSEDTAVYYCAKGDLWGAMDVWGQGTLVTVSSGGGGSGGGGSGGGGSGGGGSDIQMTQSPSSLSASVGDRVTITCRASDNIGSWLAWYQQKPGKAPKLLIYAASSLQSGVPSRFSGSGSGTDFTLTISSLQPEDFATYYCQQGYSTPPTFGQGTKVEIK
B5: MAdCAM antibody Table 1 clone 26 (scFv)
scFv: QVQLVQSGAEVKKPGASVKVSCKASGYTLTTWYMYWVRQAPGQGLEWMGWINPNRGATNYAQKFQGRVTMTRDTSTSTVYMELSSLRSEDTAVYYCAKGDLWGAMDVWGQGTTVTVSSGGGGSGGGGSGGGGSGGGGSDIQMTQSPSSLSASVGDRVTITCRASDNIGSWLAWYQQKPGKAPKLLIYAASSLQSGVPSRFSGSGSGTDFTLTISSLQPEDFATYYCQQGYSTPPTFGQGTKVEIK
B6: MAdCAM antibody Table 1 clone 27 (scFv)
scFv: QVQLVQSGAEVKKPGASVKVSCKASGYTFTGYYIHWVRQAPGQGLEWMGWMNPNSGNTGYAQKFQGRVTMTRDTSTSTVYMELSSLRSEDTAVYYCARDPGFLGYCSGGSCYDGWFDPWGQGTLVTVSSGGGGSGGGGSGGGGSGGGGSDIQMTQSPSSLSASVGDRVTITCRASQSISSYLHWYQQKPGKAPKLLIYAASSLQSGVPSRFSGSGSGTDFTLTISSLQPEDFATYYCQQSYTAPYTFGQGTKLEIK
B7: MAdCAM antibody Table 1 clone 29 (scFv)
scFv: QVQLVQSGAEVKKPGASVKVSCKASGYTFTSYYMHWVRQAPGQGLEWMAWMNPNSGNTGYAQKFQGRVTMTRDTSTSTVYMELSSLRSEDTAVYYCARDYDFWSGSLGYWGQGTLVTVSSGGGGSGGGGSGGGGSGGGGSDIQMTQSPSSLSASVGDRVTITCRASQGISNYLAWYQQKPGKAPKLLIYAASSLQSGVPSRFSGSGSGTDFTLTISSLQPEDFATYYCQQSYSTPWTFGQGTKVEIK
B8: MAdCAM antibody Table 1 clone 30 (scFv)
scFv: QVQLVQSGAEVKKPGASVKVSCKASGYTLTTWYMYWVRQAPGQGLEWMGWINPNRGATNYAQKFQGRVTMTRDTSTSTVYMELSSLRSEDTAVYYCAKGDLWGAMDVWGQGTLVTVSSGGGGSGGGGSGGGGSGGGGSDIQMTQSPSSLSASVGDRVTITCRASDNIGSWLAWYQQKPGKAPKLLIYAASSLQSGVPSRFSGSGSGTDFTLTISSLQPEDFATYYCQQGYSTPPTFGQGTKVEIK
B9: MAdCAM antibody Table 1 clone 31 (scFv)
scFv: QVQLVQSGAEVKKPGASVKVSCKASGYTFTSYYMHWVRQAPGQGLEWMGIINPSGGSTSYAQKFQGRVTMTRDTSTSTVYMELSSLRSEDTAVYYCARDTGYSYGRYYYYGMDVWGQGTLVTVSSGGGGSGGGGSGGGGSGGGGSDIQMTQSPSSLSASVGDRVTITCRASQSIGRWLAWYQQKPGKAPKLLIYDASNLQSGVPSRFSGSGSGTDFTLTISSLQPEDFATYYCQQSYSIPITFGQGTKVEIK
B10: MAdCAM antibody Table 1 clone 33 (scFv)
scFv: QVQLVQSGAEVKKPGASVKVSCKASGYTFTSYGISWVRQAPGQGLEWMGWMHPKSGDTGLTQKFQGRVTMTRDTSTSTVYMELSSLRSEDTAVYYCARDTPYYYYGMDVWGQGTTVTVSSGGGGSGGGGSGGGGSGGGGSDIQMTQSPSSLSASVGDRVTITCRASQSISSWLAWYQQKPGKAPKLLIYAASSLQSGVPSRFSGSGSGTDFTLTISSLQPEDFATYYCQQSYSVPITFGQGTKVEIK
B11: MAdCAM antibody Table 1 clone 35 (scFv)
scFv: EVQLLESGGGLVQPGGSLRLSCAASGFSFSSYTMNWVRQAPGKGLEWVSFITSSSRTIYYADSVKGRFTISRDNSKNTLYLQMNSLRAEDTAVYYCARDRRGDYGDSWYFDLWGRGTLVTVSSGGGGSGGGGSGGGGSGGGGSEIVMTQSPATLSVSPGERATLSCRASQSVRNYLAWYQQKPGQAPRLLIYGASTRATGIPARFSGSGSGTEFTLTISSLQSEDFAVYYCQQYGSSPLTFGGGTKVEIK
B12: MAdCAM antibody Table 1 clone 36 (scFv)
scFv: QVQLVQSGAEVKKPGASVKVSCKASGYTFTGHYMHWVRQAPGQGLEWMGIINPSGGSTSYAQKFQGRVTMTRDTSTSTVYMELSSLRSEDTAVYYCARDTGYSYGRYYYYGMDVWGQGTTVTVSSGGGGSGGGGSGGGGSGGGGSDIQMTQSPSSLSASVGDRVTITCRASQSIGRWLAWYQQKPGKAPKLLIYDASNLQSGVPSRFSGSGSGTDFTLTISSLQPEDFATYYCQQSYSIPITFGGGTKVEIK
B13: MAdCAM antibody Table 1 clone 38 (scFv)
scFv: EVQLLESGGGLVQPGGSLRLSCAASGFTFGSYSMSWVRQAPGKGLEWVSAIGTGGGTYYADSVKGRFTISRDNSKNTLYLQMNSLRAEDTAVYYCAKGTPYYYYYGMDVWGQGTMVTVSSGGGGSGGGGSGGGGSGGGGSDIQMTQSPSSLSASVGDRVTITCRASQPLSNWLAWYQQKPGKAPKLLIYAASSLQSGVPSRFSGSGSGTDFTLTISSLQPEDFATYYCQQAISFPLTFGGGTKVEIK
B14: MAdCAM antibody Table 1 clone 39 (scFv)
scFv: QVQLVQSGAEVKKPGASVKVSCKASGYTFTSYYMHWVRQAPGQGLEWMGWMNPNSGNTGYAQKFQGRVTMTRDTSTSTVYMELSSLRSEDTAVYYCARDLGYYDSSGYFGAFDIWGQGTTVTVSSGGGGSGGGGSGGGGSGGGGSDIQMTQSPSSLSASVGDRVTITCQSSEDISSSLNWYQQKPGKAPKLLIYAASSLQIGVPSRFSGSGSGTDFTLTISSLQPEDFATYYCQQTYSTPYTFGQGTKVEIK
B15: MAdCAM antibody Table 1 clone 40 (scFv)
scFv: QVQLVQSGAEVKKPGASVKVSCKASGYTFTSYGISWVRQAPGQGLEWMGIINPRGGSTIFAQKFQGRVTMTRDTSTSTVYMELSSLRSEDTAVYYCARGTRSSGWYGWFDPWGQGTLVTVSSGGGGSGGGGSGGGGSGGGGSDIQMTQSPSSLSASVGDRVTITCRASQGIGNWLAWYQQKPGKAPKLLIYAASNLETGVPSRFSGSGSGTDFTLTISSLQPEDFATYYCQQIHSYPLTFGGGTKVEIK
B16: MAdCAM antibody Table 1 clone 42 (scFv)
scFv: QVQLVQSGAEVKKPGSSVKVSCKASGGTLSRYGVSWVRQAPGQGLEWMGGIIPIFGTTNYAQKFQGRVTITADESTSTAYMELSSLRSEDTAVYYCARDRVYYDSSGYPTWYFDLWGRGTLVTVSSGGGGSGGGGSGGGGSGGGGSEIVMTQSPATLSVSPGERATLSCRASQSVSSSYLAWYQQKPGQAPRLLIYGASTRATGIPARFSGSGSGTEFTLTISSLQSEDFAVYYCQQYGSSPITFGQGTKVEIK
B17: MAdCAM antibody Table 1 clone 43 (scFv)
scFv: EVQLLESGGGLVQPGGSLRLSCAASGFTFDDFAMHWVRQAPGKGLEWVSGISGNGDSRYYADSVKGRFTISRDNSKNTLYLQMNSLRAEDTAVYYCARDASYGGNYGMDVWGQGTTVTVSSGGGGSGGGGSGGGGSGGGGSDIQMTQSPSSLSASVGDRVTITCQASQDIRNYLNWYQQKPGKAPKLLIYKASTLESGVPSRFSGSGSGTDFTLTISSLQPEDFATYYCQQANSFPLTFGPGTKVDIK
B18: MAdCAM antibody Table 1 clone 44 (scFv)
scFv: EVQLVESGGGLVKPGGSLRLSCAASGFTFSSYWMSWVRQAPGKGLEWVSAIGTGGGTYYAAPVKGRFTISRDDSKNTLYLQMNSLKTEDTAVYYCAREWLVPYYGMDVWGQGTTVTVSSGGGGSGGGGSGGGGSGGGGSDIQMTQSPSSLSASVGDRVTITCRASQSISRWLAWYQQKPGKAPKLLIYGASNLQSGVPSRFSGSGSGTDFTLTISSLQPEDFATYYCQQSYSTPWTFGQGTKVEIK
B19: MAdCAM antibody Table 1 clone 48 (scFv)
scFv: EVQLLESGGGLVQPGGSLRLSCAASGFTFSDHGMHWVRQAPGKGLEWVSVIYGGESTYYADSVKGRFTISRDNSKNTLYLQMNSLRAEDTAVYYCARDPAVAGGGIFDYWGQGTLVTVSSGGGGSGGGGSGGGGSGGGGSDIQMTQSPSSLSASVGDRVTITCRASQGISNYLAWYQQKPGKAPKLLIYDASNLETGVPSRFSGSGSGTDFTLTISSLQPEDFATYYCQQSYSTCYTFGQGTKLEIK
B20: MAdCAM antibody Table 1 clone 49 (scFv)
scFv: QVQLVQSGAEVKKPGASVKVSCKASGDTFTGYYIHWVRQAPGQGLEWMGWINPNSGGTNYAQKFQGRVTMTRDTSTSTVYMELSSLRSEDTAVYYCARSGLWLGSYYGMDVWGQGTLVTVSSGGGGSGGGGSGGGGSGGGGSDIQMTQSPSSLSASVGDRVTITCRASQTISIWLAWYQQKPGKAPKLLIYDASTLQSGVPSRFSGSGSGTDFTLTISSLQPEDFATYYCQQYSSYPLTFGQGTKVEIK
B21: MAdCAM antibody Table 1 clone 50 (scFv)
scFv: QVQLVQSGAEVKKPGASVKVSCKASGYTFTSYDINWVRQAPGQGLEWMGWINPNSGTTGYAQKFQGRVTMTRDTSTSTVYMELSSLRSEDTAVYYCARSPYYYYGMDVWGQGTTVTVSSGGGGSGGGGSGGGGSGGGGSDIQMTQSPSSLSASVGDRVTITCRASHFISRWVAWYQQKPGKAPKLLIYAASTLQSGVPSRFSGSGSGTDFTLTISSLQPEDFATYYCQQSYSGISFGPGTKVDIK

Target: cyno MAdCAM protein (cyno)
Assay: ELISA

Row | Binder | binding
1 | B1 | binds
2 | B2 | binds
3 | B3 | binds
4 | B4 | binds
5 | B5 | binds
6 | B6 | binds
7 | B7 | binds
8 | B8 | binds
9 | B9 | binds
10 | B10 | binds
11 | B11 | binds
12 | B12 | binds
13 | B13 | binds
14 | B14 | binds
15 | B15 | binds
16 | B16 | binds
17 | B17 | binds
18 | B18 | binds
19 | B19 | binds
20 | B20 | binds
21 | B21 | binds
